The list shows a part of the results.
Tests used:
Assay in all cases: log2 fold change, soluble protein after heating vs DMSO (PISA); higher = thermal stabilisation; K562 cells, 10 uM, 30 min; active = over 0.2 and 3.5 SD of the protein, either way, in both replicates (recomputed)
erlotinib = compound: C#Cc1cccc(Nc2ncnc3cc(OCCOC)c(OCCOC)cc23)c1 [erlotinib]
Summary of the method: (§1)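 K562 cells (2×10^6 cells/mL) were treated with 10 μM compound for 30 min, and aliquots were heated for 3 min over 48°C-58°C. Pooled aliquots were extracted in PBS with 0.5% NP-40 at 4°C, and the supernatant after 21,000xg for 90 min was measured by TMTpro 16plex LC-MS/MS with channel sums equalised. Reported thermal stability, relative to control samples and from duplicates, is a log2 fold change.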

The chains behind the UniProt entries cited, without tags or fusion partners. Where a name states a change or a piece, a line headed by the entry shows the natural chain unless it says otherwise.
UniProt Q9NYU1: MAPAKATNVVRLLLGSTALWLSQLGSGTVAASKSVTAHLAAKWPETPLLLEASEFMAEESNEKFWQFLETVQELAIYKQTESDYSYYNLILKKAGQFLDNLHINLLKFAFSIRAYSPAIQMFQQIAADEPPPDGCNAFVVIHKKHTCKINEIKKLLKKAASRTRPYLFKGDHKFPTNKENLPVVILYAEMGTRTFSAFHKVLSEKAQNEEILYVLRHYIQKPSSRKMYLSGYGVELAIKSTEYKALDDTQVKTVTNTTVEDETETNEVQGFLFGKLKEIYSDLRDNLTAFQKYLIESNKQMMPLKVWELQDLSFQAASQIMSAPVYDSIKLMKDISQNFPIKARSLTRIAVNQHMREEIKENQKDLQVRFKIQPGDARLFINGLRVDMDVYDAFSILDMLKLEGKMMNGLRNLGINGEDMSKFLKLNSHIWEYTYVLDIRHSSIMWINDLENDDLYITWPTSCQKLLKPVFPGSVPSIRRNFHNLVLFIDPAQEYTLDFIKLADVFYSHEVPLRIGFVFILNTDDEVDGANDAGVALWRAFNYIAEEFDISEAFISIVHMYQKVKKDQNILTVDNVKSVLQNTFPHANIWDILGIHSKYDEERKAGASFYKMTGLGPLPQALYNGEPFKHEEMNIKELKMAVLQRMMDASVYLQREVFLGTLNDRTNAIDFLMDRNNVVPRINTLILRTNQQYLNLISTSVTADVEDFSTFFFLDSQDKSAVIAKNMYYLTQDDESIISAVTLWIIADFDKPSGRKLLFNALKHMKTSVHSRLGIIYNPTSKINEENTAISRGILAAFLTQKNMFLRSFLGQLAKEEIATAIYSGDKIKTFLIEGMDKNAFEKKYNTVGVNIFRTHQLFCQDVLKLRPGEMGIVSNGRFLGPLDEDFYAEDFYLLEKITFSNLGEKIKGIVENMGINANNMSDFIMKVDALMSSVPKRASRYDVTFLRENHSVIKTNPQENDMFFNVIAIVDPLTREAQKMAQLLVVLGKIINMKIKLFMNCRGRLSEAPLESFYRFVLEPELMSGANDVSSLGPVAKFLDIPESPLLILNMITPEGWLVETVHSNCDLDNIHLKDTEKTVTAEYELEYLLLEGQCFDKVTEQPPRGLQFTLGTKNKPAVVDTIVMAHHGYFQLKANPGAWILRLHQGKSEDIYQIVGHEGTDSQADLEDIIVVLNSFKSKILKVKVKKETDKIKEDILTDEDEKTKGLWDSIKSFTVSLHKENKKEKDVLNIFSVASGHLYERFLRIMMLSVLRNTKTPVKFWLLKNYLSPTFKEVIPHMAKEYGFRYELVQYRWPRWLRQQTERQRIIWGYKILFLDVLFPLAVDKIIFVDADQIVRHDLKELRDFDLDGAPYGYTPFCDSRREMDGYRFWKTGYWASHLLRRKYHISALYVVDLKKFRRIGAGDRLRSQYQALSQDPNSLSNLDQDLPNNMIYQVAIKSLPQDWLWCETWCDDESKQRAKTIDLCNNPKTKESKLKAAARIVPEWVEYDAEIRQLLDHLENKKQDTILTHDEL
UniProt A6NNY8: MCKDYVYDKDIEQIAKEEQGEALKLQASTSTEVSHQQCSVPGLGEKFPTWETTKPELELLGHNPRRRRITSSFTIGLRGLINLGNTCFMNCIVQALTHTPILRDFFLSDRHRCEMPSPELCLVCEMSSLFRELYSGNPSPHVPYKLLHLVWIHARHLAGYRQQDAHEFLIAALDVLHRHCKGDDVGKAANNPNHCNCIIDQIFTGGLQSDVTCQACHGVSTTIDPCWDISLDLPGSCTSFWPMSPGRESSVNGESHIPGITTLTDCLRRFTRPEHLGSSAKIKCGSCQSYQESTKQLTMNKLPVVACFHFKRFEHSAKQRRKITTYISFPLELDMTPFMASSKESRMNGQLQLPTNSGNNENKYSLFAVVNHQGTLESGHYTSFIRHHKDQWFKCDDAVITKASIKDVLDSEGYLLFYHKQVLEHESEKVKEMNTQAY
UniProt Q9NZI7: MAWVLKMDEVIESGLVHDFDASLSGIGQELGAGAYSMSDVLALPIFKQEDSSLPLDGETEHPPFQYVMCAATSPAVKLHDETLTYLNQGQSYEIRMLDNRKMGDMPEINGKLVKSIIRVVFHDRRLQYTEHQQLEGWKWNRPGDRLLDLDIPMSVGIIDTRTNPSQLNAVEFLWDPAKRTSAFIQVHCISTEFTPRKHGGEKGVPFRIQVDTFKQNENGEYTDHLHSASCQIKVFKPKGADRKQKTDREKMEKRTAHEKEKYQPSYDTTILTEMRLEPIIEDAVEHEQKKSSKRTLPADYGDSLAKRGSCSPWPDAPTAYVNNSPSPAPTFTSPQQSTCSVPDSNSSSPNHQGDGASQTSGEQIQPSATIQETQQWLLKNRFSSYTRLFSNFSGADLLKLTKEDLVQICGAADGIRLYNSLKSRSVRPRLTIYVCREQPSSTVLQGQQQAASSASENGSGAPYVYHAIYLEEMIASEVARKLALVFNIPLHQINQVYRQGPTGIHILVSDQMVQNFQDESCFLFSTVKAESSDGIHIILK
UniProt O75317, whole entry, looked up: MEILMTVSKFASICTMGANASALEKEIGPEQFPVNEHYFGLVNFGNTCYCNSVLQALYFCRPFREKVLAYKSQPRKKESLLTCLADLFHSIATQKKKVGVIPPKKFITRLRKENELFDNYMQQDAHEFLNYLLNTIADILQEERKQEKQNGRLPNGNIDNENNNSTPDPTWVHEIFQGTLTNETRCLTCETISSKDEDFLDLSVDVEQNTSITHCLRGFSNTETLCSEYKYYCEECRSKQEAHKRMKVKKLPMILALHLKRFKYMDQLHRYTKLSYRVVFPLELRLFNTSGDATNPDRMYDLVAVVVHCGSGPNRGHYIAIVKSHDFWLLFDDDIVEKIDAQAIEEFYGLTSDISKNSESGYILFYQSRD
UniProt Q9UMX0, whole entry, looked up: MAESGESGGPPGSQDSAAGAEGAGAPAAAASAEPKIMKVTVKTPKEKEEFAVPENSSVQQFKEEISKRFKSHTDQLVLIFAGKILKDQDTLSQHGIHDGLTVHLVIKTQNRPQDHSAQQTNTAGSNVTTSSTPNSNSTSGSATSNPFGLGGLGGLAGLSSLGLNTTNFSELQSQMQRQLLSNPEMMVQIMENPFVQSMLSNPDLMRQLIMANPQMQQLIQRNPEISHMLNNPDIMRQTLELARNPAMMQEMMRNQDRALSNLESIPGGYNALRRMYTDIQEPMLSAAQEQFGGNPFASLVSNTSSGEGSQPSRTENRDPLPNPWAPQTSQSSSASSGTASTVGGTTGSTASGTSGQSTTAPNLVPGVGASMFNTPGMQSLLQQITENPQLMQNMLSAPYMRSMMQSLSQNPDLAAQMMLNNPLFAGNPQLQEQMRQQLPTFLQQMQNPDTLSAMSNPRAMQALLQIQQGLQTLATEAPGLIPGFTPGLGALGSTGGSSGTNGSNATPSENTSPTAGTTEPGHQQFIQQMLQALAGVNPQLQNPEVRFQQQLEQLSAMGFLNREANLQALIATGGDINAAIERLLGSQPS
UniProt Q8TEY7: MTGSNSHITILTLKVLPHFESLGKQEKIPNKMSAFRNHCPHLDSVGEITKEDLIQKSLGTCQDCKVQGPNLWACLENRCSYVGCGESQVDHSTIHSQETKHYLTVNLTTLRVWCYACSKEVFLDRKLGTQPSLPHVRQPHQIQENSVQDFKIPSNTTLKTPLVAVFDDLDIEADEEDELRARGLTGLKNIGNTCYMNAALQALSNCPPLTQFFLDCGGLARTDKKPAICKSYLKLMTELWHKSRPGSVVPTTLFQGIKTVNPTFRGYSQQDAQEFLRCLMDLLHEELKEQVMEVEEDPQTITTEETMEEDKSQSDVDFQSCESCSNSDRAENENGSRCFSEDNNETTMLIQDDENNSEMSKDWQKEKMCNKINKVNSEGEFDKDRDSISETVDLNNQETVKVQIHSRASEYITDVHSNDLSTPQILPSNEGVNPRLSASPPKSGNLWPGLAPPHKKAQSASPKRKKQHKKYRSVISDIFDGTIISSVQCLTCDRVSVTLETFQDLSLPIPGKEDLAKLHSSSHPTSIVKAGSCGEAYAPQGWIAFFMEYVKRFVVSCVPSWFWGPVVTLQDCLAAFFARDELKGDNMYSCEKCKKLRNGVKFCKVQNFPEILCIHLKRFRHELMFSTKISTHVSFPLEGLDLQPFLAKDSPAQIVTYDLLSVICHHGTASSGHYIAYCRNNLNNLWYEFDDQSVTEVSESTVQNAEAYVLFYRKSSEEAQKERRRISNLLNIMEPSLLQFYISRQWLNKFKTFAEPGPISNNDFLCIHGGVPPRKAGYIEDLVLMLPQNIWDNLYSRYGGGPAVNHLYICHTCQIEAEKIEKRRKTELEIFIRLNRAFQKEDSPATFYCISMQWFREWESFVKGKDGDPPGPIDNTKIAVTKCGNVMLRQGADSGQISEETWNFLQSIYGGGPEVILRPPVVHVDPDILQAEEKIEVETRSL
UniProt Q6PHR2: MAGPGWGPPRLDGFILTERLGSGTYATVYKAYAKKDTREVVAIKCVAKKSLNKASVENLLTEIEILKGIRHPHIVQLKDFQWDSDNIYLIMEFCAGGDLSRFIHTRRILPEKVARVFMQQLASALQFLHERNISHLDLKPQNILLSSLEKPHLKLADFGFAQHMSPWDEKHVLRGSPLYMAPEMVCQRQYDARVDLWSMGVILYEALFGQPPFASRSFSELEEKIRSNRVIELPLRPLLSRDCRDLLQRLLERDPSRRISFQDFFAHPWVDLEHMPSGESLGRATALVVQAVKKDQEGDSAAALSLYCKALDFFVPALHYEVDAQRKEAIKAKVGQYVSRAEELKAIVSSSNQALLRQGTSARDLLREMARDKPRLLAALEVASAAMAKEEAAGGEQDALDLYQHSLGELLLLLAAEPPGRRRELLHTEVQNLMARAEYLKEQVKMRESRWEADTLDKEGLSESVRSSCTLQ
UniProt Q70EL1: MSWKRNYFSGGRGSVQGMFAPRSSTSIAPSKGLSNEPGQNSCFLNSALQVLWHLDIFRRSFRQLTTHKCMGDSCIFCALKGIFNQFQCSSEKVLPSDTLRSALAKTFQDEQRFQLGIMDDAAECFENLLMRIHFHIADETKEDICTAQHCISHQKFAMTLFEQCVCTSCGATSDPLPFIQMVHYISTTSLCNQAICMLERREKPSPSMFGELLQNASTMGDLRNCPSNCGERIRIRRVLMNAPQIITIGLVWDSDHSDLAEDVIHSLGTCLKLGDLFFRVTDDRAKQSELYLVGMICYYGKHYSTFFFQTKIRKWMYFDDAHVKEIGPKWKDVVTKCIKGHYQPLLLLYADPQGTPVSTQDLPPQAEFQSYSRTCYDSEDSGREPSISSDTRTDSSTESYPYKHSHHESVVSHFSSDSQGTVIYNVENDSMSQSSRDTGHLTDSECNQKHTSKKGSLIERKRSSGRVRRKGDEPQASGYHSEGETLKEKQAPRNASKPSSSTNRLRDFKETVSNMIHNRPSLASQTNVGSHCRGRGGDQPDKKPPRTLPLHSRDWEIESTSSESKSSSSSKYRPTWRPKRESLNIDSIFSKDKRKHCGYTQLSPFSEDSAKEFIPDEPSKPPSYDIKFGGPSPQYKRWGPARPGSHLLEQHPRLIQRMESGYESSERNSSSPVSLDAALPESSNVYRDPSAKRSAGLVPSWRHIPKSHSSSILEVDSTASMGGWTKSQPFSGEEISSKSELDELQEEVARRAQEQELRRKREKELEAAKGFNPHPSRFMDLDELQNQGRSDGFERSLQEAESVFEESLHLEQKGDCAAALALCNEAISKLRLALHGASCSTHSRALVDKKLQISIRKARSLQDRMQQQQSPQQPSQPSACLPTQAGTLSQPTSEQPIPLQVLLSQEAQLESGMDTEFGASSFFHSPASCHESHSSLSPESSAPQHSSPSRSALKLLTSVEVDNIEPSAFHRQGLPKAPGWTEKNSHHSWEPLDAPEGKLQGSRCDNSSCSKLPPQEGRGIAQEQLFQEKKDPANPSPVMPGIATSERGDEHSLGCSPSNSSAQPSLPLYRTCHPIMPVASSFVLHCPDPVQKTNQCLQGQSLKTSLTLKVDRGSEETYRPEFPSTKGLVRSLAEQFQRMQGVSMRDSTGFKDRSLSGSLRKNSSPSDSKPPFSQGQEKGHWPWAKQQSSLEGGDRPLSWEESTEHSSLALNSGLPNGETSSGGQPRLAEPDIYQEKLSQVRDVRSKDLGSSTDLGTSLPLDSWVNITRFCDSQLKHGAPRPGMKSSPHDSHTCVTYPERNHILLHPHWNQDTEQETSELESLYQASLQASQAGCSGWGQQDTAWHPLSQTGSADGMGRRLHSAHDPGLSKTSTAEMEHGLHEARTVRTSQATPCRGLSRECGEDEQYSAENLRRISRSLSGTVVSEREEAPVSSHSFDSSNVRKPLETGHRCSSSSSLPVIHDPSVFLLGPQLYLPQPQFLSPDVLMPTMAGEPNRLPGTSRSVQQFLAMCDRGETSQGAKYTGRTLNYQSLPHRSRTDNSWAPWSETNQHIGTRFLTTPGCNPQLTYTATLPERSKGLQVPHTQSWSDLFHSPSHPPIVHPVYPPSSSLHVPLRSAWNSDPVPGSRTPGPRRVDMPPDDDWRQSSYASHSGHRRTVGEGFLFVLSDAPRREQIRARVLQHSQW

[1] = compound: C/C(=N\NC(=O)C1=CC(=CC=C1)S(=O)(=O)N2CCOCC2)/C3=C(C=CC(=C3)Cl)O
Summary of the method: as §1

[2] = compound: C1=CC(=C(C=C1Cl)C2=NC3=NC=CN=C3C(=N2)NC4=CC=NC=C4)F
Summary of the method: as §1

[3] = compound: C1=CC(=CC=C1C2=NC3=C(N2)C=C(C=C3)C(=O)N)OC4=CC=C(C=C4)Cl
Summary of the method: as §1

[4] = compound: C1=CC2=C(C=CC(=C2)/C=C\3/C(=O)NC(=NCC4=CC=CS4)S3)N=C1
Summary of the method: as §1

[5] = compound: C1=CC2=NC=CN=C2C=C1/C=C/3\C(=O)NC(=O)S3
Summary of the method: as §1

[6] = compound: C1=CC=C2C(=C1)C3=NNC4=CC=CC(=C43)C2=O
Summary of the method: as §1

[7] = compound: C1CCN(C1)C(=O)NC2=CC=CC(=C2)NC3=NC=C(C(=N3)NCCC4=CN=CN4)Br
Summary of the method: as §1

[8] = compound: C1CN(CCC1(CC2=CC=C(C=C2)Cl)N)C3=NC=NC4=C3C=CN4
Summary of the method: as §1

[9] = compound: C1=CC=C(C=C1)C2=NC(=C(N2)C3=CC=NC=C3)C4=CC(=C(C=C4)Cl)O
Summary of the method: as §1

Measured: log2 fold change

UNG (UniProt P13051)
inactive: erlotinib 0.012 | [1] 0.082 | [2] -0.039 | [3] 0.036 | [4] -0.116 | [5] 0.033 | [6] -0.204 | [7] -0.065 | [8] -0.006

UFM1 isoform 2 (UniProt P61960)
inactive: erlotinib -0.132 | [1] 0.108 | [2] 0.06 | [3] 0.14 | [4] 0.07 | [5] 0.032 | [6] -0.003 | [7] 0.08 | [8] 0.004

UQCC1 (UniProt Q9NVA1)
inactive: erlotinib -0.016 | [1] 0.017 | [2] -0.018 | [3] 0 | [4] -0.034 | [5] 0.075 | [9] 0.003 | [6] -0.027 | [7] 0.031 | [8] 0.03

UBE4A isoform 2 (UniProt Q14139)
inactive: erlotinib 0.012 | [1] 0.148 | [2] 0.083 | [3] -0.11 | [4] 0.012 | [5] 0.083 | [9] -0.039 | [6] -0.301 | [7] -0.018 | [8] -0.132

USP1 (UniProt O94782)
inactive: erlotinib -0.053 | [1] 0.089 | [2] -0.066 | [3] 0.17 | [4] 0.11 | [5] 0.039 | [9] -0.159 | [6] 0.074 | [7] -0.019 | [8] 0.006

VAV1 (UniProt P15498)
inactive: erlotinib -0.262 | [1] 0.149 | [2] -0.163 | [3] 0.086 | [4] 0.107 | [9] -0.091 | [6] 0.001 | [7] -0.183 | [8] -0.215

UCHL3 (UniProt P15374)
inactive: erlotinib -0.062 | [1] 0.114 | [2] 0.068 | [3] -0.005 | [4] 0.017 | [5] 0.04 | [9] -0.045 | [6] -0.019 | [7] 0.012 | [8] 0.006

USF2 (UniProt Q15853)
inactive: erlotinib -0.007 | [1] 0.036 | [2] 0.076 | [3] 0.177 | [4] 0.121 | [5] 0.011 | [9] 0.001 | [6] -0.005 | [7] 0.02 | [8] 0.026

ULBP1 (UniProt Q9BZM6)
inactive: erlotinib -0.017 | [1] 0.011 | [2] 0.231 | [3] 0.044 | [4] 0.021 | [9] -0.083 | [6] 0.037 | [7] -0.073 | [8] 0.078

UGDH (UniProt O60701)
inactive: erlotinib 0.004 | [1] 0.134 | [2] 0.128 | [3] 0.023 | [4] 0.046 | [5] -0.174 | [9] 0.017 | [6] 0.043 | [7] -0.063 | [8] 0.009

UGGT2 (UniProt Q9NYU1)
inactive: erlotinib -0.017 | [1] -0.062 | [2] -0.029 | [3] -0.025 | [4] 0.166 | [5] 0.009 | [9] 0.002 | [6] 0.017 | [7] 0.081 | [8] -0.222

USP11 (UniProt P51784)
inactive: [2] -0.555 | [9] -0.02

UNC13A (UniProt Q9UPW8)
inactive: erlotinib -0.021 | [3] 0.062 | [5] -0.016 | [7] 0.064 | [8] 0.077

USP27X (UniProt A6NNY8)
inactive: [1] 0.183 | [2] -0.068 | [4] -0.089 | [9] -0.139 | [6] -0.211 | [7] 0.005 | [8] -0.058

VCPIP1 (UniProt Q96JH7)
inactive: erlotinib 0.101 | [2] -0.2 | [3] -0.105

UTP14C (UniProt Q5TAP6)
inactive: erlotinib 0.099 | [2] 0.024 | [3] -0.103

USP46 (UniProt P62068)
inactive: erlotinib 0.205 | [2] -0.175 | [3] 0

UTP20 (UniProt O75691)
inactive: erlotinib -0.082 | [2] 0.053 | [3] -0.321 | [7] 0.061 | [8] 0.04

USP48 (UniProt Q86UV5)
inactive: erlotinib 0.228 | [3] -0.112 | [5] 0.007

UFSP1 (UniProt Q6NVU6)
inactive: erlotinib 0.232 | [3] 0.091

UQCC3 (UniProt Q6UW78)
inactive: [2] 0.288 | [5] -0.061

Two consecutive entries out of the list so far, for reference:
VAV1 (UniProt P15498)
inactive: erlotinib -0.262 | [1] 0.149 | [2] -0.163 | [3] 0.086 | [4] 0.107 | [9] -0.091 | [6] 0.001 | [7] -0.183 | [8] -0.215

UCHL3 (UniProt P15374)
inactive: erlotinib -0.062 | [1] 0.114 | [2] 0.068 | [3] -0.005 | [4] 0.017 | [5] 0.04 | [9] -0.045 | [6] -0.019 | [7] 0.012 | [8] 0.006

Further results:

UBXN8 (UniProt O00124)
inactive: [1] 0.056 | [2] 0.147 | [4] 0.141 | [5] -0.41 | [9] -0.149 | [6] -0.036 | [7] 0.167 | [8] -0.019

UNC5B (UniProt Q8IZJ1)
inactive: [2] -0.442 | [7] 0.161 | [8] -0.127

Pulled one by one from the list above, 4 records:
UFSP1 (UniProt Q6NVU6)
inactive: erlotinib 0.232 | [3] 0.091

USP46 (UniProt P62068)
inactive: erlotinib 0.205 | [2] -0.175 | [3] 0

UNC5B (UniProt Q8IZJ1)
inactive: [2] -0.442 | [7] 0.161 | [8] -0.127

USP48 (UniProt Q86UV5)
inactive: erlotinib 0.228 | [3] -0.112 | [5] 0.007

The listing continues.

URB2 (UniProt Q14146)
inactive: erlotinib -0.095 | [1] -0.13 | [3] 0.021 | [4] 0.124 | [5] 0.045 | [6] -0.215

USF3 (UniProt Q68DE3)
inactive: [2] -0.149 | [5] -0.037 | [9] -0.002

UTP18 (UniProt Q9Y5J1)
inactive: erlotinib -0.24 | [2] -0.31 | [3] 0.051 | [5] -0.031 | [9] 0.003

UGP2 (UniProt C9JWG0)
inactive: [1] -0.29 | [4] 0.209 | [5] 0.019 | [6] 0.08

UBP1 (UniProt Q9NZI7)
inactive: [2] -0.391 | [5] 0.03 | [9] -0.155 | [7] 0.055 | [8] 0.042

UQCR11 (UniProt O14957)
inactive: erlotinib -0.154 | [1] 0.126 | [3] 0.017 | [4] 0.133 | [9] 0.028 | [6] 0.062

USB1 (UniProt Q9BQ65)
inactive: erlotinib 0.122 | [3] -0.09 | [7] -0.289 | [8] 0.054

UMAD1 (UniProt C9J7I0)
inactive: erlotinib 0.115 | [3] 0.181 | [5] 0.077 | [9] 0.192 | [7] -0.048 | [8] -0.365

UPF3A (UniProt Q9H1J1)
inactive: erlotinib -0.02 | [2] -0.02 | [3] 0.007

USP12 (UniProt O75317)
inactive: [1] 0.113 | [4] 0.003 | [9] -0.059 | [6] 0.097 | [7] -0.278 | [8] 0.048

UBQLN1 isoform 2 (UniProt Q9UMX0)
inactive: erlotinib -0.25 | [3] -0.216

UBXN10 (UniProt Q96LJ8)
inactive: erlotinib -0.036 | [2] 0.004 | [3] 0.048 | [5] -0.068 | [9] -0.077 | [7] -0.101 | [8] 0.128

USP33 (UniProt Q8TEY7)
inactive: erlotinib 0.143 | [1] -0.132 | [3] -0.111 | [4] -0.352 | [9] 0.065 | [6] 0.078 | [7] 0.027 | [8] 0.034

VASN (UniProt Q6EMK4)
inactive: erlotinib 0.086 | [2] 0.03 | [3] 0.446 | [5] -0.083

UBTF (UniProt P17480)
inactive: erlotinib 0.195 | [1] -0.071 | [3] 0.067 | [4] 0.018 | [5] 0.128 | [9] 0.06 | [6] 0.08

ULK3 isoform 4 (UniProt Q6PHR2)
inactive: [2] -0.015 | [5] 0.085 | [9] -0.072

UBR3 isoform 4 (UniProt Q6ZT12)
inactive: erlotinib 0.109 | [2] -0.013 | [3] -0.157 | [5] 0.33 | [7] -0.063 | [8] -0.034

USP54 (UniProt Q70EL1)
inactive: erlotinib 0.088 | [3] -0.203 | [5] 0.149 | [7] 0.082 | [8] 0.09

UNK (UniProt Q9C0B0)
inactive: erlotinib -0.055 | [1] -0.002 | [3] 0.02 | [4] -0.014 | [5] -0.013 | [6] -0.008 | [7] -0.1 | [8] -0.03
